Results on one molecule are retold here after article PMC5602300.

Chains of the proteins cited; added tags and fusions are not shown. Lines headed by an entry give the natural chain unless they say otherwise; changes in a name come on top.
UniProt Q96R06: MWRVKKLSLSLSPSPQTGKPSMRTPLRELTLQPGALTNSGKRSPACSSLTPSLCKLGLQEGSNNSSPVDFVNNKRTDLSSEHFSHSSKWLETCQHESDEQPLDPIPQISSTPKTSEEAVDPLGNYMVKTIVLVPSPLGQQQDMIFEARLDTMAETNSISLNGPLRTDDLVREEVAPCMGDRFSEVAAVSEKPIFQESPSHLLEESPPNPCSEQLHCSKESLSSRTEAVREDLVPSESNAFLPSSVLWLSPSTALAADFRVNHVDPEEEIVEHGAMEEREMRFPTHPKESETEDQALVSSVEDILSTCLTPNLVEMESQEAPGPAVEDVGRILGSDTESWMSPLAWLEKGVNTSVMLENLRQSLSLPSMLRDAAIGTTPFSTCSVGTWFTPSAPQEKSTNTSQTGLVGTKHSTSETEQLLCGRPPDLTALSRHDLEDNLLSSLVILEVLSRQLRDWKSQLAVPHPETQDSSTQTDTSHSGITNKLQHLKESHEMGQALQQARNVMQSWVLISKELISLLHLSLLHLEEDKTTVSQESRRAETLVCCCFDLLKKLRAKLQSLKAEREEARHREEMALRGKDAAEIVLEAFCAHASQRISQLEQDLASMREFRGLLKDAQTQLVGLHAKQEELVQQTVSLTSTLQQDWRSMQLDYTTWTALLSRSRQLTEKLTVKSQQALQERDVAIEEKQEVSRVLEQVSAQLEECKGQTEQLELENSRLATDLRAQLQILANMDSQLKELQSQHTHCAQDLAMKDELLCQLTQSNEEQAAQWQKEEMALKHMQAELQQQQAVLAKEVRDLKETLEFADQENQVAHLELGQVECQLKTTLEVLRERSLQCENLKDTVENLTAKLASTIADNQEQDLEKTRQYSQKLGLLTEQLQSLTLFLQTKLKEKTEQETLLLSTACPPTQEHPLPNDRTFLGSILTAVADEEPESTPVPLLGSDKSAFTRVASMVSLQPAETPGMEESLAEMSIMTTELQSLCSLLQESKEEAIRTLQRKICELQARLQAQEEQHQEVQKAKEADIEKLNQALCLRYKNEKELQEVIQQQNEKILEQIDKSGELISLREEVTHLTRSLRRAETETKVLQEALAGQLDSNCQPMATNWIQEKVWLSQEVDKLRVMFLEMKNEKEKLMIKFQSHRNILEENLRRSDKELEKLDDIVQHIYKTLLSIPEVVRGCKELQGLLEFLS
UniProt Q9Y448: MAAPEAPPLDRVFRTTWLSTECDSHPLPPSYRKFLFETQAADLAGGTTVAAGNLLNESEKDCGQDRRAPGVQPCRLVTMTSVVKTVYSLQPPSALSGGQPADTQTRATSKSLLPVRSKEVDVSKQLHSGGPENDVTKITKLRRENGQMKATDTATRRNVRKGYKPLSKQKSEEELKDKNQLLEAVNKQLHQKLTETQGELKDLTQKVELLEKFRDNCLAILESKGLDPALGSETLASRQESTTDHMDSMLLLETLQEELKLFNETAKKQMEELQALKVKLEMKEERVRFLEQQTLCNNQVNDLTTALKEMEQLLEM

Results are given in words; binding and its absence hold for the method and conditions named. In cells and extracts the contact can be indirect. A yes stands for co-enrichment or nearness to the bait. Other partners may have been found. Where a sequence is shown, tags or fusion partners need not be part of it.

The target of assay [1] is Astrin (endogenous, HeLa cells) (human (endogenous in HeLa)) (UniProt Q96R06). Description: affinity purification with mass spectrometry; pooled mass spectrometry data from Astrin and SKAP IPs (data of Kern et al., 2016, reanalysed here).
The target in assay [2] is SKAP (endogenous, HeLa cells) (human (endogenous in HeLa)) (UniProt Q9Y448). The assay is described as above.

B1: MYCBP (endogenous, human tissue culture cells) (protein, UniProt Q99417 1-103)
chain: MAHYKAADSKREQFRRYLEKSGVLDTLTKVLVALYEEPEKPNSALDFLKHHLGAATPENPEIELLRLELAEMKEKYEAIVEENKKLKAKLAQYEPPQEEKRAE
As to B1, the binding entry in assay [1] and in assay [2] was “binds” throughout.
